Assay results: patent US20120328696A1, “ANTI-PARKINSONIAN COMPOUND ACETYLSALICYLIC ACID MALTOL ESTER” (Hutecs Korea Pharmaceutical Co., Ltd., priority 2008, published 2012)
At least one structure is not confirmed: it was looked up by name or label, or the drawing left a doubt.

Tests used:
Assay type in all cases: in vivo
[1] = tested on: GPx-1 (+/+)- and GPx-1 (−/−)-mice; assay: Locomotor activity after MA; settings: PKC inhibitors intra-striatal (chelerythrine 0.2 ug/head, rottlerin 3.0 ug/head significant); MA 8 mg/kg i.p. x4; GPx-1 (+/+) and (−/−) mice
Procedure: (§1) The mice received four times of MA (8 mg/kg, ip) or saline as a 2 hr-time interval. Chemicals (AME, EBS, and PKC inhibitors) were administrated for 5 consecutive days (twice daily), and were given 2 times at 4 hr and 30 min before the first MA injection as shown in the experimental schedule. Animals were sacrificed at 4 hrs and 3 days after the final MA administration.
Locomotor activity was measured for 30 min 3 days after the last MA administration using an automated video-tracking system (Noldus Information Technology, Wagenin, The Netherlands). Four test boxes (40×40×30 cm high) were operated simultaneously by an IBM computer. Mice were studied individually during locomotion in each test box, where they were adapted for 5 min before starting the experiment. […] The distance traveled in cm by the animals in horizontal locomotor activity was analyzed. Data were collected and analyzed between 09:00 and 17:00 h (Kim et al., 2001).

[2] = tested on: GPx-1 (+/+)- and GPx-1 (−/−)-mice; assay: MA-induced hyperthermia (rectal temperature); settings: PKC inhibitors intra-striatal (doses of Table 1), MA 8 mg/kg i.p. x4
Procedure: as §1
Rectal temperature was measured in the MA- or saline-treated mice. Measurement was performed at constant daytime intervals starting at 9:00 A.M. to avoid the influence on circadian variations. Rectal temperature was measured by inserting a thermometer probe lubricated with oil at least 3 cm into the rectum of the mice. To prevent sudden movements occurring especially in MA-treated mice, animals were gently handled with a wool glove while their tail was moved to allow the probe insertion. This was done to prevent the effects of restrain stress on rectal temperature. When the attempt to insert probe was not successful (i.e., sudden movements of the animal or the need to restrain the mouse), the animal was excluded from the groups.

[3] = tested on: GPx-1 (+/+)- and GPx-1 (−/−)-mice; assay: Rota-rod test after MA; settings: PKC inhibitors intra-striatal (chelerythrine 0.2 ug/head, rottlerin 3.0 ug/head significant); MA 8 mg/kg i.p. x4; GPx-1 (+/+) and (−/−) mice
Procedure: as §1
The apparatus (Ugo Basile model 7650, Comerio, VA, Italy) consisted of a base platform and a rotating rod with a nonslippery surface. The rod was placed at a height of 15 cm from the base. The rod, 30 cm in length, was divided into 5 equal sections by 6 opaque disks (so that the subjects cannot be distracted by one another) To assess motor performance, the mice first trained on the apparatus 2 minutes at a constant rate of 4 r.p.m. per 30 s prior to the test. The test was performed 30 minutes after training and an accelerating paradigm was applied, starting from a rate of 4 r.p.m. to a maximum speed of 40 r.p.m., then the rotation speed was kept constant at 40 r.p.m. for a maximum of 300 s. The duration for which the animal could maintain balance on the rotating drum was measured as the rotarod latency, with a maximal cut-off time of 300 s.

cleaved PKCδ = assay: Striatal cleaved PKCδ expression after MA (western blot); settings: intra-striatal; MA 8 mg/kg i.p. x4; GPx-1 (+/+) and (−/−) mice
Procedure: as §1
(§2) Tissues were homogenized in lysis buffer, containing 200 mM Tris HCl (pH 6.8), 1% SDS, 5 mM EGTA (ethylene glycol tetraacetic acid), 5 mM EDTA (ethylenediaminetetraacetic acid), 10% glycerol, 1× phosphatase inhibitor cocktail I, 1× protease inhibitor cocktail. Lysate was centrifuged at 12,000×g for 30 min and supernatant fraction was used for Western blot analysis. […] And then, membranes were incubated with HRP-conjugated secondary anti-rabbit IgG (1:1000, GE healthcare, Piscataway, N.J., USA), anti-mouse IgG (1:1000, Sigma) or anti-goat IgG (1:1000, Sigma) for 2 h. Subsequent visualization was performed using enhanced chemiluminescence system (ECL Plus®, GE healthcare).

PKCδ = assay: Striatal PKCδ expression after MA (western blot); settings: intra-striatal; MA 8 mg/kg i.p. x4; GPx-1 (+/+) and (−/−) mice
Procedure: as §1, §2

COc1ccc2c(c[n+](C)c3c4cc5c(cc4ccc23)OCO5)c1OC [chelerythrine, chelerythrine chloride]
effect on MA-induced impairment in locomotor activity [1]: attenuated the MA-behavioral impairments in a dose-dependent manner | effect on MA-induced hyperthermia [2]: significantly blocked MA-induced hyperthermia in a dose-dependent manner | effect on MA-induced impairment in rota-rod performance [3]: attenuated the MA-behavioral impairments in a dose-dependent manner | effect on MA-induced increase in striatal cleaved PKCδ expression (cleaved PKCδ): attenuated the MA-induced increases in PKCδ expressions in a dose-dependent manner | effect on MA-induced increase in striatal PKCδ expression (PKCδ): attenuated the MA-induced increases in PKCδ expressions in a dose-dependent manner
